The test can be described thus: qHTS Assay for Modulators of Lamin A Splicing. To be noted: HeLa LMNA splicing GFP/RFP minigene ratio, 48 h. The method, boiled down: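 S3 HeLa stable clones carrying a lamin A-EGFP splicing minigene plus DsRed2 were seeded at 600 cells/well in Opti-MEM with 2% FBS, pin-dosed and incubated 48 h at 37°C. Acumen cytometry (488 nm) gave the GFP/RFP total-intensity ratio.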

[1] abbreviates: measured here: RFP viability control channel.
Setting [2] is: measured here: GFP splicing reporter channel.

Some of the results follow. The main result of the screen is listed elsewhere. These columns were measured beside it and carry no call. Compounds called inactive in the main read-out are mostly missing here. Potencies come from curve fits of mixed quality, noted in brackets.

In the case of `COc1ccccc1-c1nnc(SC(C(=O)c2c[nH]c3ccccc23)c2ccccc2)n1C` (stereo unspecified), the AC50 under setting [1] was 0.0501 µM [rising, full curve].

For `CCOC(=O)/C=C/C(=O)Nc1ccccc1C(=O)NC1CCCCC1`, the AC50 under setting [1] is 31.6 µM [rising, single point].

For `O=C(CCNS(=O)(=O)c1cccc2nsnc12)NCc1ccc(F)cc1`, under setting [2], the AC50 was 0.00398 µM [rising, full curve, poor fit].

Regarding `CCCOc1cccc(C(=O)NC(=S)Nc2cccc(C(F)(F)F)c2)c1`, the AC50 was 22.4 µM [rising, single point] under setting [2] and 35.5 µM [rising, single point] under setting [1].

Consider `COc1ccc(OC)c(NC(=O)NNC(=O)CCCOc2ccc(Cl)cc2C)c1`, for which the AC50 under setting [2] is 0.794 µM [falling, full curve, poor fit] and the AC50 under setting [1] was 0.00316 µM [falling, full curve, poor fit].

Take `O=C(Nc1cccc(OCc2cc(=O)n3ccccc3n2)c1)Nc1cccc(C(F)(F)F)c1`: under setting [2], the AC50 is 0.447 µM [rising, single point].

With `O=C(CS(=O)(=O)c1cn(Cc2cccc(F)c2)c2ccccc12)N1CCOCC1`, the AC50 under setting [2] was 0.708 µM [rising, partial curve] and the AC50 under setting [1] is 15.8 µM [rising, single point].

As to `CC(=O)Nc1ccc(SCC(=O)c2cc(C)n(-c3ccccc3)c2C)cc1`, under setting [1], the AC50 is 14.1 µM [rising, partial curve].

As to `CCOc1ccccc1CNC(=O)c1oc2c(c1C)-c1nn(Cc3cccc(Cl)c3)cc1CC2`, the AC50 was 11.2 µM [falling, partial curve] under setting [2] and 15.8 µM [falling, partial curve] under setting [1].

As to `Cc1ccc2c(=O)c(C(=O)c3ccc(Cl)cc3)cn(CC(=O)Nc3ccc4c(c3)OCCO4)c2n1`, the AC50 under setting [2] is 0.00447 µM [rising, full curve, poor fit].

For the compound `CC(C)(C)c1ccc(NC(=O)N2CCCN(c3ccc([N+](=O)[O-])cn3)CC2)cc1`, the AC50 under setting [1] is 0.02 µM [falling, full curve, poor fit].

`CC(C)CNC(=O)CN1C(=O)NC(Cc2c[nH]c3ccccc23)C1=O` (stereo unspecified): the AC50 under setting [2] was 2.24 µM [rising, partial curve, poor fit] and the AC50 under setting [1] was 0.0224 µM [rising, full curve, poor fit].

Consider `COC(=O)N/N=C/c1cn(CCCOc2ccccc2)c2ccccc12`, for which the AC50 was 14.1 µM [rising, single point] under setting [2] and 25.1 µM [rising, single point] under setting [1].

For the compound `O=C(O)C(CC1CCCCC1)N1CCS(=O)(=O)CC1` (stereo unspecified), the AC50 under setting [2] is 0.0562 µM [rising, full curve, poor fit].

For the compound `Cn1c(C(=O)NCc2ccccc2)cc2oc3ccccc3c21`, the AC50 under setting [1] was 12.6 µM [rising, partial curve].

As to `CCOC(=O)N1CCN(CC(O)COCc2ccc(OC)c(OC)c2)CC1` (stereo unspecified), the AC50 under setting [1] was 28.2 µM [rising, partial curve].

Turning to `O=C(CCC(=O)Nc1ccc(Br)cc1)N/N=C/c1cc([N+](=O)[O-])ccc1O`, under setting [2], the AC50 is 0.112 µM [falling, partial curve, poor fit].

Turning to `COc1ccc(NC(=S)NCC2CCN(c3ccc(OC)cc3)C2)cc1` (stereo unspecified), the AC50 under setting [1] was 15.8 µM [rising, single point].

As to `CCCCNC(=O)C1CCC(Cn2c(=O)c3sccc3n(CC(=O)Nc3ccccc3)c2=O)CC1` (stereo unspecified), the AC50 was 22.4 µM [falling, single point] under setting [2] and 17.8 µM [falling, partial curve] under setting [1].

In the case of `O=C(NCc1ccco1)c1cnn2c1NC(c1ccc(Br)cc1)CC2C(F)(F)F` (stereo unspecified), under setting [1], the AC50 is 15.8 µM [rising, partial curve, poor fit].

Take `O=C(NN=C1CCCCC1)c1ccccc1OCc1ccc(F)cc1`: under setting [1], the AC50 is 3.98 µM [rising, partial curve].

Consider `O=C(Nc1nccs1)c1ccc(S(=O)(=O)N2CCOCC2)cc1`, for which the half-maximal activity concentration (AC50) under setting [2] was 0.0224 µM [rising, full curve, poor fit].

`O=Cc1ccc(-c2ccccc2C(=O)O)o1`: the AC50 under setting [1] is 0.0316 µM [falling, full curve, poor fit].

Take `CC(=O)N(CC(O)CO)c1c(I)c(C(=O)NCC(O)CO)c(I)c(C(=O)NCC(O)CO)c1I` (stereo unspecified): under setting [2], the AC50 was 0.00316 µM [falling, full curve, poor fit].

As for `Cc1ccc(S(=O)(=O)N2CCc3ccccc3C2CN2C(=O)c3ccccc3C2=O)cc1` (stereo unspecified), the AC50 under setting [1] is 35.5 µM [rising, single point].

For the compound `CC1=C(C(=O)OC(C)C)C(c2cccc([N+](=O)[O-])c2)n2c(cc(=O)[nH]c2=S)N1` (stereo unspecified), the concentration at half-maximal activity (AC50) under setting [1] was 0.00316 µM [falling, full curve, poor fit].

With `COc1cc(-c2cc3n(C)c(C)c(CCC(=O)NC4CCCCC4)c(=O)n3n2)cc(OC)c1OC`, the concentration at half-maximal activity (AC50) under setting [1] is 0.126 µM [falling, full curve, poor fit].

As to `COc1ccc(S(=O)(=O)Nc2cccc(N(C)S(C)(=O)=O)c2)cc1Br`, the AC50 under setting [1] is 14.1 µM [rising, single point].

Take `O=C1CC(c2cccc(Br)c2)c2cc3c(cc2N1)CCC3` (stereo unspecified): the AC50 under setting [1] was 8.91 µM [falling, partial curve].

For the compound `CCOc1ccc(NC(=O)Nc2ccc(N(C)C(C)=O)cc2)cc1`, the AC50 under setting [1] was 35.5 µM [falling, single point].

As to `CC(=O)Nc1ccc(NC(=O)COC(=O)c2c(C)nn(-c3ccccc3)c2C)cc1`, the AC50 under setting [2] was 6.31 µM [falling, single point].

For `CCCOC(=O)c1ccc(Oc2cn[nH]c2-c2ccc(OC)cc2O)cc1`, the AC50 was 35.5 µM [rising, single point] under setting [2] and 20 µM [rising, single point] under setting [1].

Regarding `COc1ccc(OCc2ccc(-c3nc(C#N)c(N4CCCCC4)o3)o2)cc1`, under setting [1], the AC50 was 0.0126 µM [falling, full curve, poor fit].

On to `COc1ccc(-n2nc([N+](=O)[O-])c(=NCCc3ccc(OC)c(OC)c3)n2O)cc1`, for which the AC50 reads like this: under setting [2], 10 µM [rising, partial curve]; under setting [1], 12.6 µM [rising, partial curve].

As for `OC(COCc1ccccc1)CN1CCN(Cc2ccc3c(c2)OCO3)CC1` (stereo unspecified), the AC50 by setting is: under setting [2], 0.0501 µM [rising, full curve]; under setting [1], 0.0501 µM [rising, full curve, poor fit].

With `CCCCOc1ccc(Br)cc1/C(C)=N/NC1=NCCN1`, the AC50 was 20 µM [falling, partial curve] under setting [2] and 20 µM [falling, single point] under setting [1].

Take `Cc1c(C(=O)N(C)C)sc2c1c(=O)n(-c1ccc(Cl)cc1)c(=O)n2CC(=O)C(C)(C)C`: under setting [2], the AC50 was 8.91 µM [falling, full curve, poor fit].

Turning to `O=C(Nc1nccs1)c1cccc(NC(=O)c2ccco2)c1`, the AC50 under setting [1] was 22.4 µM [rising, single point].

On to `COc1ccccc1Nc1nc2ccccc2[nH]1`, for which the AC50 under setting [1] is 11.2 µM [rising, single point].

`O=C(NCC1CCCO1)c1ccc(OC2CCN(C(=O)C3CC3)CC2)cc1` (stereo unspecified): the AC50 under setting [2] is 17.8 µM [rising, partial curve, poor fit] and the AC50 under setting [1] is 35.5 µM [rising, partial curve, poor fit].

For `CN(C(=S)Oc1ccc(C(=O)Nc2ccccc2)cc1)c1ccccc1`, the AC50 by setting is: under setting [2], 10 µM [rising, single point]; under setting [1], 12.6 µM [rising, partial curve].

In the case of `N#CC(C(=O)NCc1ccccc1)c1nc2ccccc2nc1N1CCCC1` (stereo unspecified), the AC50 under setting [2] was 5.62 µM [falling, single point] and the AC50 under setting [1] is 5.62 µM [falling, single point].

As for `CCC1=C(c2ccc(C)cc2)S(=O)(=O)N=C1N1CCC(C(=O)NCc2ccc(N(C)C)cc2)CC1`, the AC50 under setting [2] is 22.4 µM [falling, partial curve].

On to `CSCSC1=C(C#N)C(c2ccc(Cl)cc2)C(C(C)=O)=C(C)N1` (stereo unspecified), for which the AC50 under setting [1] was 12.6 µM [rising, partial curve, poor fit].

Consider `Cc1cccc(N2CCN(C(=O)c3cnc(N4CCCC4)nc3C)CC2)c1C`, for which the AC50 under setting [2] was 35.5 µM [falling, single point].

In the case of `O=C(Nc1ccc(OCc2ccccc2)cc1)c1cccc([N+](=O)[O-])c1`, the AC50 under setting [1] was 0.00447 µM [falling, full curve, poor fit].

Take `Cc1cccc(N2CCN(C(=O)c3c(C)nn(Cc4ccccc4Cl)c3C)CC2)c1C`: the AC50 under setting [1] was 12.6 µM [rising, single point].

Consider `CC(Oc1ccc(Cl)cc1Cl)c1ccnc2nc(N3CCOCC3)nn12` (stereo unspecified), for which, under setting [2], the AC50 is 0.0282 µM [falling, full curve, poor fit].

On to `CCCCC1(Cc2cccc([N+](=O)[O-])c2)C(=O)N(c2ccccc2)N(c2ccccc2)C1=O`, for which the AC50 under setting [1] is 11.2 µM [rising, partial curve].

Consider `COc1ccc(-c2nc(N)nc(C)c2Oc2ccccc2Br)c(O)c1`, for which the AC50 was 35.5 µM [falling, single point] under setting [2] and 35.5 µM [falling, single point] under setting [1].

For `Cc1nn(-c2ccccc2)c(N2CCCC2)c1/C=N/Nc1ccc(S(=O)(=O)Nc2ccccc2)cc1[N+](=O)[O-]`, the AC50 under setting [1] is 3.16 µM [rising, full curve].

Take `O=C(NCCCN1CCOCC1)c1cnn2c(-c3ccccc3)cc(-c3ccccc3)nc12`: under setting [1], the AC50 is 14.1 µM [rising, single point].

As to `Cc1ccc(NC(=O)CCN2CCN(C/C=C/c3ccccc3)CC2)cc1C`, the AC50 under setting [2] is 14.1 µM [rising, single point].

Regarding `CCOC(=O)c1cc(C(=O)OCC)c(=O)[nH]c1C`, the AC50 by setting is: under setting [2], 0.891 µM [falling, single point]; under setting [1], 0.112 µM [falling, single point].

With `O=C1CCC/C(=N/NC(=O)c2ccc(CN3c4cccc5cccc(c45)S3(=O)=O)cc2)C1`, the half-maximal activity concentration (AC50) under setting [1] is 22.4 µM [rising, single point].

These data come from PubChem BioAssay AID1487 (National Center for Advancing Translational Sciences (NCATS), 2009).
